# Out of some 53,000 sequences screened, about 3,700 (7%) were called active.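 How the source made its calls: active means gene knockdowns whose robust z-score for IL-1 alpha signal is at least 2 or at most -2, so actives lie on both sides; inactive means the rest.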 The list shows a part of the results.
# Assay: Components of the Cytosolic LPS Sensing Pathway: Gene Identification via Genome-wide siRNA Screen;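 further: robust z of the log signal after scaling to non-targeting control siRNA wells of the plate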
# Conditions: RAW264.7 macrophages, IL-1a HTRF, actives lie on both sides, screened at 100 nM (by protocol), cells primed 5 h with Pam3CSK4 first
# Outline: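 Supernatant IL-1a by HTRF from RAW264.7 cells primed with Pam3CSK4 (5 hours) and transfected with LipidA (24 hour) after 48h siRNA knockdown at 100 nM; cell viability checked with CellTiter-Glo.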
row,Sequence,z-score
1,GGAUAUUGAACACUUCUUGTT against Strip2,inactive: 1.04
2,GGAAUACCUCCACCUAUGGTT against Tcerg1,inactive: -1.33
3,CCUACAUCCUCCAUAGAAUTT against Gm5600,inactive: 0.456
4,CGGGUCAAUUUGAAUGCAUTT against Svep1,inactive: -1.45
5,GGACCAUAUGGACACAAAGTT against Col10a1,inactive: 0.715
6,GGACUCUCUUCUGGCAUCUTT against Nkx3-2,inactive: 1.04
7,GCUGGUGAUCGUAGCCAAGTT against Mydgf,inactive: 0.256
8,GGAGCGAAUCUUAAAGAACTT against Gspt1,inactive: 0.401
9,GGAGCUGUUUCAGGUAUCUTT against Tcam1,inactive: -1.03
10,GGGAAGAAAAUCAAACUCATT against Fabp1,inactive: 0.504
11,GGCUGUGCGUGUUACAAAATT against Erlin1,inactive: 0.501
12,CCUAUUCAUCAUAACUCAUTT against Tdo2,inactive: 0.129
13,CCUGAAGCUUUUGAUCCUATT against Exoc5,inactive: 0.179
14,GGUCGAAAUGAUCUCCAACTT against Poli,inactive: -0.687
15,CGGCAAUGUGACUAACAUCTT against Nrros,inactive: 0.76
16,GGAGGCUCUACUUUUGUAGTT against Olfr611,active: -2.16
17,GGAGAACAUGGAGACUAUUTT against Ramp1,inactive: -0.756
18,GGAUCCUAGCCUUUUAUCATT against Cep70,inactive: -1.11
19,GGGAAAAAGAAAAGGAAAATT against Dhx15,inactive: -0.918
20,CCAGACUCCUCUUAGAAGGTT against Ankrd34c,inactive: 0.73
21,GGAGAACUUCCUAUACUAUTT against Apobec2,inactive: 0.448
22,GGUAAAACAGAGGAGUCGGTT against Scaf1,inactive: -0.444

# An excerpt of these results, bar-delimited:
row | Sequence | z-score
15 | CGGCAAUGUGACUAACAUCTT against Nrros | inactive: 0.76
16 | GGAGGCUCUACUUUUGUAGTT against Olfr611 | active: -2.16
17 | GGAGAACAUGGAGACUAUUTT against Ramp1 | inactive: -0.756
18 | GGAUCCUAGCCUUUUAUCATT against Cep70 | inactive: -1.11
19 | GGGAAAAAGAAAAGGAAAATT against Dhx15 | inactive: -0.918
20 | CCAGACUCCUCUUAGAAGGTT against Ankrd34c | inactive: 0.73

# Additional results follow:

row,Sequence,z-score
1,GGAUACUCACUGCACAAGGTT against Slc9a8,inactive: 0.804
2,GGACCCAGUUUUCCCUUGATT against Insig2,inactive: -1.43
3,GGUGGUAUCCCUAAAGGUGTT against Pus1,inactive: -0.952
4,GGCUGAGAUAAUCACAUUUTT against Moxd2,inactive: 1.88
5,GGAGACUUUCCAUUUGAAGTT against Fnbp1l,inactive: -0.188
6,GCUCCUUAGACUCCACUCATT against Ccdc33,inactive: 1.79
7,CUGAGGUCUCUCAUUACCATT against Olfr69,inactive: -1.46
8,GGUGAAAUGGAUCGUCCUCTT against Nme8,inactive: -0.926
9,CCUAAAAUCCUAGACCUUUTT against Pank1,inactive: 1.24
10,GGCAAAUUAUUAGUACAGUTT against Gabpa,inactive: 1.41
11,GCACUAGGCGAGUUGUCAUTT against Rnase4,inactive: -1.7
12,GGAGCUGAUGGAAGAGAUCTT against Speer4f1,inactive: -1.49
13,GUCUUUGUUUUGUUGCUUGTT against Olfr1232,inactive: 0.305
14,GGUGUAGAUGGAUUUCAUUTT against Kcmf1,inactive: 1.3
15,GCAUGAUUACCCAUUUCAATT against Tax1bp1,inactive: 0.334
16,GCAUGUUUUCCACAUGUCCTT against Vmn1r239-ps,inactive: 0.197
17,GGAAAGAGUCAUAAUUGAUTT against Adarb2,inactive: -0.406
18,GGAAUUCCACGGUAUUCACTT against Dcaf12l2,inactive: 1.46
19,GGAUUUCAUUGGGUUUCUUTT against Apmap,inactive: -1.13
20,GGUAGCACAUUCGGAUAAATT against Vapa,inactive: -1.1
21,GGUUAUCAGAAAUGUGUCCTT against Chrnb3,inactive: -1.12
22,CCUUUAACUUUCUCCUACCTT against Nfkbid,active: 3.45

row,Sequence,z-score
1,GGACGAUGGACCCUAAAAGTT against Iqca1l,inactive: 0.369
2,GGAACUGAACAAGAUUUCUTT against 1700129C05Rik,inactive: 1.84
3,GGACGGGAUACUUUAAAGATT against Sem1,inactive: 0.654
4,GGAUUCAAGUUCUCACCGATT against Serpina6,inactive: -0.462
5,GCGCAAACUUUAAUAACACTT against Zkscan1,inactive: 0.604
6,GCUCACCUUCAGGUAAGCGTT against Leo1,inactive: -1.28
7,GCAACCACUGUGGUGAUUGTT against Neurl3,inactive: -0.515
8,GCCUCCUUUAUGUAGCUUATT against Cdca3,inactive: 1.76
9,GGUGCUGAUGGAGAACUUCTT against Ruvbl1,inactive: -1.55
10,GCCGUGAAAUACAGCGUAATT against Exoc3l,inactive: 0.546
11,GGUGUCUUUCUUCACUCUUTT against Olfr862,inactive: 0.225
12,CCAUGACUAUUCUUACUUCTT against Olfr937,inactive: -0.32
13,CCAAAACGGAAUCCUAAUATT against Nyap2,inactive: -1.34
14,GGUUCAUGUGAACUUGCUGTT against Sesn2,inactive: -1.99
15,GGAUGUAUGUGCCAAGAUCTT against Rd3,inactive: -0.759
16,GCCAACUAUCUUUUCUUAGTT against Ppp1cb,inactive: 0.136
17,GGGAAGAAUUCAGAAAAACTT against Cmc1,inactive: -1.39
18,CCAUAUUGAGGAAAAAUCCTT against Zfp788,inactive: -1.31
19,CCUUAUGCAUGACUUGAGUTT against Exoc4,inactive: -0.2
20,GCUUCUGUUCGUUACGUCCTT against Ndufc2,active: 2.55
21,GGUGCUUCUGAGCAAGAAUTT against Adra2b,inactive: -1.26
22,GGACUUAAAACAGAAAGCATT against Haus1,active: -2.79

row,Sequence,z-score
1,GCCGUCAUCACUGAAUUCATT against Olfr242,inactive: 0.239
2,GGAAAAAAGGAAUUGACUUTT against Nebl,inactive: 1.65
3,GCACACCGUUUACCCUACCTT against Gapt,inactive: -1.32
4,GGUCUUUCAAAUACCCAAATT against Rcor2,inactive: 0.638
5,CCCAGAAGACCCGAACUUUTT against E130006D01Rik,inactive: 0.378
6,GGGAUGAGUUCUCCUACCATT against Srm,inactive: -1.51
7,GCAAGGUGUAGAUUUUACATT against Nrep,inactive: 0.954
8,CCACUUGUACGCACUCAAGTT against Ang4,inactive: 0.406
9,GCACAAUUAGACUUCUUCCTT against Vat1,inactive: -0.093
10,GGACCUGGUGGAGAACAAGTT against Kcnj12,inactive: 1.64
11,GGUCAUCGAGACUCAGGAUTT against Ihh,inactive: 1.4
12,GCACUUCCGACUUUUUCACTT against Mettl24,inactive: -1.69
13,CGGACAAGAUAAAGUGUGUTT against Lypd9,inactive: -1.07
14,GCGCAGUUGCAAACCACACTT against Clec4g,inactive: 0.778
15,GCGGCUUUAUUCACACUUUTT against Ufsp1,inactive: 0.272
16,GGGCGGAGCAUUUUUCUUGTT against Ube2d2b,inactive: 0.483
17,GCGACAUCUGGAAAAAUACTT against Atp2a1,inactive: -0.406
18,GGACAAGGAUGCAAUUAUCTT against Hoatz,inactive: -1.7
19,GCAAGGUGUGGAAUGACCUTT against Snx8,inactive: -1.33
20,CCUAUGUACCCACUGAAAUTT against Tmem63c,inactive: -1.6
21,GGGACAAUGGCAAAAUAAATT against Serpinb11,inactive: -1.28
22,GGUGAUUCACAUACUUUAUTT against Vps54,inactive: 0.612

row,Sequence,z-score
1,GGUGUCCUAUGUGAAGGAGTT against Trmu,inactive: -0.0884
2,GCCUGAUGGGCACUUUGAATT against Socs6,inactive: 0.0945
3,GCAAAUUAGGUUGUGAAUGTT against Gab1,inactive: -0.924
4,GUCUUAAAAUUCCUGCUCCTT against Mrgprg,inactive: -0.549
5,GGUGGAGCAGAUGAAGAACTT against Hspbp1,inactive: 0.447
6,GCAGCUCACUUUGGAUGACTT against Irf4,inactive: 1.17
7,GCAUGUUUUCCACAGCGAUTT against Vmn1r41,inactive: -0.132
8,GGAGUGAAUGAAUGAAUGATT against Vsx1,inactive: -0.605
9,GGCCACCAGAAUUGUUCACTT against Gm5136,inactive: 0.981
10,CCUGAAUCUAGCCAUUCAATT against Olfr1080,inactive: -0.546
11,GGCUGAGUUUGGUAAGAGATT against Scly,inactive: 0.124
12,GGAAUCGGCAGUCUCAUUCTT against Nfkbiz,inactive: 0.935
13,CCUAUCCAGAUGUCAUUAATT against Hoxa11,inactive: 0.849
14,GGCCUAUGCGGAGGAGUUATT against Hsdl1,inactive: 0.268
15,CCUCAACAAAUCAUCCUAATT against Rgs18,inactive: -1.08
16,GGAUGCUUGGCUCAAUUACTT against Olfr992,inactive: 0.891
17,GGUCUGUCGGAAAAUCUGGTT against Agfg2,inactive: 0.779
18,GCAUAGAGGACUACAACGATT against Optc,inactive: 0.329
19,GGCUAACUCCUUAAAACCUTT against Aldh18a1,inactive: -0.372

# Source: PubChem BioAssay AID1508600 (Functional Genomics Laboratory (NCATS/FGL), 2020)
